Experimental data as given in article PMC8209548.
Results are given in words; binding and its absence hold for the method and conditions named. Binding seen in cells or lysates may run through a third protein. Some results given as binding are weak or reduced against the parent protein; the word gives no strength.

Protein sequences, listed by entry. Tags and fused reporters are not part of them. Residues count along the entry.
UniProt Q13153, residues 67-150: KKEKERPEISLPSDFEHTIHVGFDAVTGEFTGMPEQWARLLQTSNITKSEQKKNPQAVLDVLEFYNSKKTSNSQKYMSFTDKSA
UniProt P60766: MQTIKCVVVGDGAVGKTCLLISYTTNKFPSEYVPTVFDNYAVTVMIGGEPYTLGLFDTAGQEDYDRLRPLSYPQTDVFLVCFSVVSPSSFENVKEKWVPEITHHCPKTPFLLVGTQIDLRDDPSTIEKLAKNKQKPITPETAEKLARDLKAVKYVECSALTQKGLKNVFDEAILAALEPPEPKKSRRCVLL
UniProt Q9QUI0: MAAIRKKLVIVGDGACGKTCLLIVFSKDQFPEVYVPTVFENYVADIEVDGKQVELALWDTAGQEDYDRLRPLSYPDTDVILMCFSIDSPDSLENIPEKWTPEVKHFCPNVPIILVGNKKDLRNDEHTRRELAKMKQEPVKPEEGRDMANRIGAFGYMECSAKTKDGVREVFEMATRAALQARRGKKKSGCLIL

Columns and labels:
[1] = biological target: GTPase-binding domain (PBD) of human PAK1 (amino acids 67-150) in fusion with GST (human) (UniProt Q13153); experiment: pull-down; PBD-GST on beads; VIC lysates (NP-40-soluble fraction) incubated with 100 μM GTPγS before precipitation; binding buffer 25 mM Tris-HCl pH 7.4, 1 mM DTT, 30 mM MgCl2, 40 mM NaCl, 0.5% Nonidet P-40, 1 h at 4°C; pellets and supernatants immunoblotted for Cdc42 and Rac1; only the target purified
[2] = biological target: GTPase-binding domain (PBD) of human PAK1 (amino acids 67-150) in fusion with GST (human) (UniProt Q13153); experiment: pull-down; GTP-loaded PBD-GST beads; lysates of VICs without added nucleotide, cells treated beforehand (with or without 1 μg/ml PN, PN shRNAs, Src inhibitor PP2, Fak Y397F, α5 and β1 integrin blocking antibodies, FLNA constructs); bound Cdc42, Rac1 or RhoA immunoblotted and normalised to the total in the lysate; only the target purified
[3] = biological target: GTPase-binding domain (PBD) of human PAK1 (amino acids 67-150) in fusion with GST (human) (UniProt Q13153); experiment: condition: only in the presence of an excess of GDP (100 μM); pull-down; PBD-GST on beads; VIC lysates (NP-40-soluble fraction) incubated with 100 μM GDP before precipitation; binding buffer 25 mM Tris-HCl pH 7.4, 1 mM DTT, 30 mM MgCl2, 40 mM NaCl, 0.5% Nonidet P-40, 1 h at 4°C; pellets and supernatants immunoblotted for Cdc42 and Rac1; only the target purified

Substance | binding [1] | binding [2] | binding [3]
Cdc42 (from UniProt P60766 1-191) | binds | binds | no binding
RhoA (from UniProt Q9QUI0 1-193) | – | binds | –
